According to PubChem BioAssay AID720504 (National Center for Advancing Translational Sciences (NCATS), 2013):
In all, about 360,000 compounds went through this assay and about 10,000 (2.8%) were called active. Inconclusive means that the source gave no clear call. Such entries were picked first, then a sample of the others. The call rests on the fitted dose curve; in most records, active means well fitted inhibition curve with a large enough effect; inconclusive means small, poorly fitted or top-dose-only effect; inactive means flat fitted curve, though single readings scatter. Potencies beside an inconclusive call are fits to weak or partial responses and may not hold up.

Chains of the proteins cited; added tags and fusions are not shown.
UniProt P53350, whole entry, looked up: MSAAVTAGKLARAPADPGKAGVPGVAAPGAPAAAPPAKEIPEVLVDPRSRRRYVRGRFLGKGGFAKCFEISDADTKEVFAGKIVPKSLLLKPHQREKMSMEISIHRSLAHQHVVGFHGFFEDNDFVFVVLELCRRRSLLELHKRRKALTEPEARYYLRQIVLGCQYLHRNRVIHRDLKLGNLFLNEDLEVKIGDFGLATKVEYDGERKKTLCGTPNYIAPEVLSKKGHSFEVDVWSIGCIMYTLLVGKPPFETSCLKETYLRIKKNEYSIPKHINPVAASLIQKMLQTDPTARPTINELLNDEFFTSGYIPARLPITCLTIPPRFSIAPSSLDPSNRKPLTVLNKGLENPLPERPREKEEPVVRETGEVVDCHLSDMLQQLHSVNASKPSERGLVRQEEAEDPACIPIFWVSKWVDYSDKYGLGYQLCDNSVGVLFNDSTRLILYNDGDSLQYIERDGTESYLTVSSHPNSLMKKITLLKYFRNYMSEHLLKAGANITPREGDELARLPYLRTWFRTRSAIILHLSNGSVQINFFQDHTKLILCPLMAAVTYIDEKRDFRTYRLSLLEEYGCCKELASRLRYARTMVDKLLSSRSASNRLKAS

Each compound was assayed against Serine/threonine-protein kinase PLK1 (Homo sapiens) (UniProt P53350) (assay: qHTS for Inhibitors of PLK1-PDB (polo-like kinase 1 - polo-box domain): Primary Screen). Conditions: Plk1 PBD binding of FITC phosphopeptide, fluorescence polarization.
Further: nearly all actives have a fitted effect of over 65% in size.
On the % scale 0 is the no-effect control and ±100 the full control effect; potency means the concentration at half of the fitted maximal effect.
Wherever max response, negative = inhibition is given: series mostly up to about 57 µM.

SMILES	max response, negative = inhibition	Potency
N#Cc1c(NC(=S)NC(=O)Cc2cccs2)sc2c1CCCCC2	inconclusive: -30.3% [inhibitor]	
COc1ccc(C(CNC(=O)c2ccc(-c3ccccc3Cl)o2)N2CCOCC2)cc1 (stereo not drawn)	inactive: 0.883%	
O=C(NNC(=O)C1CC(=O)N(Cc2ccccc2)C1)c1ccc(F)cc1 (stereo not drawn)	inactive: 0.0211%	
c1ccc(-c2csc(Nc3ccc4c(c3)OCCO4)n2)cc1	inactive: 0%	
COc1cc(OC)cc(C(=O)NNC(=S)NC(=O)c2cccnc2)c1	inactive: -3.77%	
Cc1ccc(-c2cn3cccnc3n2)cc1	inactive: -3.58%	
COc1ccc(N2C(=O)c3cc4ccccc4cc3C2=O)cc1		active: 26.7 µM
O=C(N1CCc2cc(S(=O)(=O)NC[C@H]3O[C@@H](n4ccc(=O)[nH]c4=O)[C@H](O)[C@@H]3O)ccc2C1)C(F)(F)F		inconclusive: 21.2 µM [inhibitor, single point]
Cc1cc(C(=O)OCC(=O)NC(C)C)c2ccccc2n1		active: 11.9 µM
O=C(O)c1cccc(N/N=C/c2cccc3ccccc23)c1		inconclusive: 23.8 µM [inhibitor, partial curve]
N#CC1=C(N)Oc2n[nH]c(-c3ccccc3)c2C1c1ccsc1 (stereo not drawn)		inconclusive: 18.9 µM [inhibitor, partial curve]
Cn1c(Cl)nc2ccccc21	inactive: -2.51%	
Cc1cccc(CN2CCN(C(c3ccccc3)c3ccc(Cl)cc3)CC2)c1 (stereo not drawn)		inconclusive: 29.9 µM [inhibitor, single point]
COc1cc(-c2cc(NC(C)=O)c3ncc(-c4ccc(C(C)=O)cc4)n3c2)cc(OC)c1OC		inconclusive: 29.9 µM [inhibitor, partial curve]
O=C(NCc1ccncc1)C1CCCN1S(=O)(=O)c1ccc(Cl)cc1 (stereo not drawn)		inconclusive: 37.7 µM [inhibitor, single point]
COC(=O)c1cc(NC(=O)CN2CCc3cc4c(cc3C2)OCCCO4)cc(C(=O)OC)c1	inactive: -1.75%	
S=C(c1ccc2c(c1)OCO2)N1CCOCC1		inconclusive: 26.7 µM [inhibitor, single point]
Nc1nc2ccc(C(=O)N3CCCCC3)cc2s1		inconclusive: 26.7 µM [inhibitor, partial curve]
CN=c1sc(C(=O)Nc2cccc(Cl)c2)cc(=O)n1C		inconclusive: 21.2 µM [inhibitor, single point]
Cc1c(Cl)cccc1NC(=O)Cn1c(CCC(=O)O)ccc1-c1ccc(Cl)cc1		inconclusive: 23.8 µM [inhibitor, partial curve]
CCN(CC)C1Oc2cc3c(cc2C(c2cccc(OC)c2O)C1C)OCO3 (stereo not drawn)	inactive: 0.254%	
CC(=O)N1CCN(S(=O)(=O)c2cccc(C(=O)NNC(=O)c3ccc(Br)cc3)c2)CC1	inactive: 4.89%	
CN(CC1CCCN(CCc2ccccc2F)C1)C(=O)c1cc2ccccc2o1 (stereo not drawn)	inactive: -6.74%	
CC(=O)Nc1cc(-c2ccc(CO)cc2)cn2c(-c3ccc(F)c(Cl)c3)cnc12		inconclusive: 26.7 µM [inhibitor, partial curve]
COCCNc1c(-c2ccc(OC)cc2)nc2ccc(Cl)cn12	inconclusive: -34.7% [inhibitor]	

3 structures from above, arranged by SMILES length, largest number first.
SMILES	max response, negative = inhibition	Potency
COc1ccc(C(CNC(=O)c2ccc(-c3ccccc3Cl)o2)N2CCOCC2)cc1 (stereo not drawn)	inactive: 0.883%	
O=C(NCc1ccncc1)C1CCCN1S(=O)(=O)c1ccc(Cl)cc1 (stereo not drawn)		inconclusive: 37.7 µM [inhibitor, single point]
N#CC1=C(N)Oc2n[nH]c(-c3ccccc3)c2C1c1ccsc1 (stereo not drawn)		inconclusive: 18.9 µM [inhibitor, partial curve]

Next part

SMILES	max response, negative = inhibition	Potency
O=C(O)c1ccc2c(c1)C(=O)N(CCCCCCCN1C(=O)c3ccc(C(=O)O)cc3C1=O)C2=O	inactive: -2.04%	
COc1ccc(N2CC(C(=O)Nc3cccnc3)CC2=O)cc1 (stereo not drawn)	inactive: -2.22%	
Cc1ccc(NS(=O)(=O)c2cc(C(=O)O)ccc2Cl)cc1		inconclusive: 29.9 µM [inhibitor, partial curve]
O=C(C1CCCN(C2CC(=O)N(c3ccc(Cl)cc3)C2=O)C1)N1CCCC1 (stereo not drawn)	inactive: -7.06%	
COc1ccccc1NC(=O)NC1(C(=O)NCC2CCCO2)CCCCC1 (stereo not drawn)	inactive: -0.1%	
O=C1/C(=C/c2ccccn2)SC(=S)N1Nc1ncc(C(F)(F)F)cc1Cl		inconclusive: 11.9 µM [inhibitor, partial curve]
CC[C@@H]1C/C=C\Cc2ccccc2[C@H](C(=O)C[C@@H](O)CC(C)=O)OC1=O		inconclusive: 33.6 µM [inhibitor, partial curve]
O=C(CCS(=O)(=O)c1ccccc1)N(CCCN1CCOCC1)c1nc2c(F)cccc2s1		inconclusive: 11.9 µM [inhibitor, partial curve]
CCc1ccc(NC(=S)N(Cc2cccc(Br)c2)CC2CCC(C(=O)O)CC2)cc1 (stereo not drawn)		inconclusive: 23.8 µM [inhibitor, partial curve]
O=C(O)c1ccc(CSc2nc(-c3ccccc3)cc(C(F)(F)F)n2)cc1		inconclusive: 18.9 µM [inhibitor, partial curve]
COCCn1c2nc(=O)n(-c3ccccc3)c(=O)c-2nc2ccccc21		active: 3.77 µM
Cc1ccc(NC(=O)CSc2nnc(N)s2)cc1S(=O)(=O)N1CCOCC1	inactive: -8.97%	
CCn1c(=O)c(C(=O)NCCN2CCCCC2)c(O)c2ccccc21	inactive: 3.02%	
O=C(O)c1cnc(-c2ccccc2)nc1Sc1ccc(Cl)cc1Cl		active: 26.7 µM
COc1cc(S(=O)(=O)NC2CCCCC2C)ccc1Cl (stereo not drawn)	inactive: -8.81%	
Cc1cccc(NC(=S)Nc2cccc(C)n2)n1	inactive: -3.07%	
O=S(=O)(N/N=C/c1cccnc1)c1ccc(Cl)c(Cl)c1		active: 13.4 µM
COc1ccc(NC(=O)COC(=O)Cc2c(F)cccc2Cl)cc1OC		inconclusive: 13.4 µM [inhibitor, partial curve]
CN(c1ccc(C(=O)N2CCN(Cc3ccccc3)CC2)cc1)S(=O)(=O)c1ccccc1	inactive: -14.7%	
COc1ccc(CNC(=O)COC(=O)Cc2ccc(Br)cc2)cc1	inactive: -3.32%	
Cc1ccc(CS(=O)(=O)c2ncc(Cl)c(C(=O)Nc3nnc(C(C)C)s3)n2)cc1		inconclusive: 37.7 µM [inhibitor, single point]
O=C(Oc1ccccc1)c1ccc(NC(=O)c2ccco2)cc1		active: 23.8 µM
Cn1cnc([N+](=O)[O-])c1S(=O)(=O)c1ccc(Cl)cc1		inconclusive: 10.6 µM [inhibitor, partial curve]
CCN(CC)S(=O)(=O)c1ccc2[nH]cc(C(=O)NCCC3=CCCCC3)c(=O)c2c1	inactive: -1.29%	
CC(C)CCN1C(=O)c2ccc(C(=O)Nc3ccc(Br)cc3C(=O)O)cc2C1=O		inconclusive: 15 µM [inhibitor, partial curve]

SMILES	max response, negative = inhibition	Potency
CN(C1CCCCC1)S(=O)(=O)c1ccc(NC(=O)c2ccco2)cc1		inconclusive: 29.9 µM [inhibitor, partial curve]
CC(NS(=O)(=O)c1ccc2c(c1)c(=O)n(C)c(=O)n2C)C(=O)NC1CCCCC1 (stereo not drawn)		active: 26.7 µM
c1cn2cc(-c3ccc4c(c3)OCO4)nc2s1		active: 23.8 µM
Cc1ccc(N2CC(C(=O)Nc3nnc(SCC(N)=O)s3)CC2=O)cc1C (stereo not drawn)	inconclusive: -31.1% [inhibitor]	
c1ccc(NNC2=NCCCCC2)cc1		inconclusive: 10.6 µM [inhibitor, partial curve]
Cc1ccc(C(=O)Nc2nc(=O)n(C(=O)c3ccccc3C)s2)cc1		inconclusive: 21.2 µM [inhibitor, single point]
CCOc1ccc(C(=O)NC(=S)NCc2cccnc2)cc1[N+](=O)[O-]	inactive: -0.384%	
Cc1cc(C)nc(NC(=O)c2ccc([N+](=O)[O-])c(C)c2)n1	inactive: -8.95%	
O=C(O)CCCCCNC(=O)/C(=C\c1ccco1)NC(=O)c1ccco1	inactive: -8.99%	
COc1ccc(NC(=O)CSc2nnc(-c3cccs3)n2N)c(OC)c1		inconclusive: 23.8 µM [inhibitor, partial curve]
Cc1ccc(-c2cc(-c3ccccc3Cl)c(C#N)c(N)n2)o1		inconclusive: 42.3 µM [inhibitor, single point]
COc1ccc(-c2nc(C#N)c(N3CCN(c4ccccc4)CC3)o2)cc1	inactive: -2.66%	
O=C1CC(Sc2ncccn2)C(=O)N1c1ccccc1C(F)(F)F (stereo not drawn)		inconclusive: 29.9 µM [inhibitor, partial curve]
CC1=NOC(=O)/C1=C/c1ccc(O)c(Br)c1		inconclusive: 6.7 µM [inhibitor, partial curve]
C/C(N)=C(/C#N)C(=O)COC(=O)c1ccc(NC(N)=O)cc1		inconclusive: 37.7 µM [inhibitor, single point]
COc1ccc(-c2cc(NC(C)=O)c3ncc(-c4ccc(OC)c(OC)c4)n3c2)cc1OC		inconclusive: 26.7 µM [inhibitor, partial curve]
CN(C)C(=O)CSc1nc2ccccc2n1Cc1ccccc1	inactive: 5.41%	
CSc1ccc(C2NN=C(c3ccccc3)S2)cc1 (stereo not drawn)		inconclusive: 29.9 µM [inhibitor, single point]
Nc1ccc(Oc2ncccn2)cc1		inconclusive: 21.2 µM [inhibitor, single point]
COc1cc(C2C(C#N)=C(N)OC3=C2C(=O)CCC3)c([N+](=O)[O-])cc1OC (stereo not drawn)		inconclusive: 26.7 µM [inhibitor, single point]
O=C(CN(Cc1ccccc1)C(=O)CSc1nnc(COc2ccccc2)o1)NC1CCCC1		inconclusive: 26.7 µM [inhibitor, partial curve]
O=C1CCCC(=O)N1c1ccc(O)cc1		inconclusive: 37.7 µM [inhibitor, single point]
CN(C)c1ccc(C=c2c3ccccc3n3c2cc(-c2ccc(Cl)cc2)[n+]3C)cc1		active: 29.9 µM
